Experimental data published in article PMC2931529.
No constants are given. Whether binding was seen depends on the method and setting. Some entries that bind do so weakly or less than the wild type.

Biological target: T1, signal transducer and activator of transcription 1, tyrosine-phosphorylated (pY701) (human (endogenous in LX-2)), P42224
T1 chain: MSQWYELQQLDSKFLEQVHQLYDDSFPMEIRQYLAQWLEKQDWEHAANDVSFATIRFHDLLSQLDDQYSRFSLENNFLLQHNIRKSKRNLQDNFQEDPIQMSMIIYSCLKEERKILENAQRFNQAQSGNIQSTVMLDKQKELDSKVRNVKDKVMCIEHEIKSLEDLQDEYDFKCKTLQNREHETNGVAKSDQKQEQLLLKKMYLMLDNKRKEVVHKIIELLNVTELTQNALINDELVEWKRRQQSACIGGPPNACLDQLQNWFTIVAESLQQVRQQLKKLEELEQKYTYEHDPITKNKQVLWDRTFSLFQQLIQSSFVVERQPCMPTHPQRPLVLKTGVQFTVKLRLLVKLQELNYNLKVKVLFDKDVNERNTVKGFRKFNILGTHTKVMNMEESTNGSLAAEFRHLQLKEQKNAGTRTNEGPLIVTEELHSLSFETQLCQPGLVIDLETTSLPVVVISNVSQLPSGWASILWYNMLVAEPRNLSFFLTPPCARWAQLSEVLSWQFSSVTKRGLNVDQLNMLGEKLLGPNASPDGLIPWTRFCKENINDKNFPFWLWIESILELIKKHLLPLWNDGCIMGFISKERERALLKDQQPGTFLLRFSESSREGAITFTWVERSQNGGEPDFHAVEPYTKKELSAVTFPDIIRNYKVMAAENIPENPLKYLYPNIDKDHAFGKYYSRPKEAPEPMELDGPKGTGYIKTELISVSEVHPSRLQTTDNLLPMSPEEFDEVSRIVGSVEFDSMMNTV
Experiment: native gel or EMSA; nuclear extracts (detergent-free) of LX-2 cells stimulated with 30 ng/mL IL-27, IL-6 (with soluble IL-6 receptor) or IFNγ for the times indicated; DNA-bound STAT dimer species seen by autoradiography/phosphorimager
Conditions: remark: other sources report otherwise

B1: signal transducer and activator of transcription 1, tyrosine-phosphorylated (pY701), P42224 1-750 (protein)
chain: MSQWYELQQLDSKFLEQVHQLYDDSFPMEIRQYLAQWLEKQDWEHAANDVSFATIRFHDLLSQLDDQYSRFSLENNFLLQHNIRKSKRNLQDNFQEDPIQMSMIIYSCLKEERKILENAQRFNQAQSGNIQSTVMLDKQKELDSKVRNVKDKVMCIEHEIKSLEDLQDEYDFKCKTLQNREHETNGVAKSDQKQEQLLLKKMYLMLDNKRKEVVHKIIELLNVTELTQNALINDELVEWKRRQQSACIGGPPNACLDQLQNWFTIVAESLQQVRQQLKKLEELEQKYTYEHDPITKNKQVLWDRTFSLFQQLIQSSFVVERQPCMPTHPQRPLVLKTGVQFTVKLRLLVKLQELNYNLKVKVLFDKDVNERNTVKGFRKFNILGTHTKVMNMEESTNGSLAAEFRHLQLKEQKNAGTRTNEGPLIVTEELHSLSFETQLCQPGLVIDLETTSLPVVVISNVSQLPSGWASILWYNMLVAEPRNLSFFLTPPCARWAQLSEVLSWQFSSVTKRGLNVDQLNMLGEKLLGPNASPDGLIPWTRFCKENINDKNFPFWLWIESILELIKKHLLPLWNDGCIMGFISKERERALLKDQQPGTFLLRFSESSREGAITFTWVERSQNGGEPDFHAVEPYTKKELSAVTFPDIIRNYKVMAAENIPENPLKYLYPNIDKDHAFGKYYSRPKEAPEPMELDGPKGTGYIKTELISVSEVHPSRLQTTDNLLPMSPEEFDEVSRIVGSVEFDSMMNTV
modifications: here or on the partner: phosphotyrosine at 701 (pY701); phosphotyrosine at 701 (pY701)
binding: binds
